These results are taken from publication PMC3320541.

These are yes or no findings as the source states them, for the method shown. Binding can be weak; no strength is given.

This assay deals with HopZ2^C229A (Pseudomonas syringae). Put plainly: two-hybrid; split-ubiquitin yeast two-hybrid screen (QIS-Seq): membrane-tethered LexA-VP16-Cub bait against the NubG Arabidopsis cDNA prey library in AP-4 yeast; interacting colonies by growth on SD-LeuTrpHis + 3-AT; prey inserts of ~2000 pooled colonies sequenced (Illumina); enrichment against luciferase bait and library.

B1: Arabidopsis thaliana MLO2 (At1g11310), partial clone of the cDNA prey library (domain or fragment, UniProt Q9SXB6 281-573)
chain: QRSLEKDFKTVVEISPVIWFVAVLFLLTNSYGLRSYLWLPFIPLVVILIVGTKLEVIITKLGLRIQEKGDVVRGAPVVQPGDDLFWFGKPRFILFLIHLVLFTNAFQLAFFAWSTYEFNLNNCFHESTADVVIRLVVGAVVQILCSYVTLPLYALVTQMGSKMKPTVFNDRVATALKKWHHTAKNETKHGRHSGSNTPFSSRPTTPTHGSSPIHLLHNFNNRSVENYPSSPSPRYSGHGHHEHQFWDPESQHQEAETSTHHSLAHESSEPVLASVELPPIRTSKSLRDFSFKK
B1: the binding entry is “binds”.
